Results are given in words; binding and its absence hold for the method and conditions named. Some entries that bind do so weakly or less than the wild type.

Test [1] concerns the target T1, human hepcidin-22 peptide (human).
T1 sequence (peptide): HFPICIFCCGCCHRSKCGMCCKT
The test can be described thus: Western blot after non-reducing tricine SDS-PAGE. In general terms: In western blotting, separated proteins are transferred to a membrane and probed.

For test [2], the target named is T2, NT-biotin hepcidin-25 (human).
T2 sequence (peptide, NT-biotin (biotin label; NT is not spelled out, taken as the N-terminus)): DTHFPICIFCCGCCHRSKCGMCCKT
Nature of the test: C-ELISA, NT-biotin hepcidin-25 on neutravidin. (In general: In an ELISA, binding on a coated surface is turned into a signal by an enzyme label.)

The target is the same in test [3]. The test can be described thus: C-ELISA, BAP070-01 on Protein G, NT-biotin hepcidin-25 tracer.
Test [4] concerns the target T3, human hepcidin-25 (synthetic) (human).
T3 sequence (peptide): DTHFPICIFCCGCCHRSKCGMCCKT
Nature of the test: ELISA, hepcidin-25 100 ng/well on maleic anhydride plate, serially diluted supernatant (FIG. 30).

Test [5] has the same target. Nature of the test: ELISA, hepcidin-25 covalently bound to maleic anhydride plate.
Test [6] addresses murine anti-hepcidin MAb 583. Nature of the test: competition ELISA, MAb 583 coated, NT-biotin hepcidin-25 tracer 1 ng/well (FIG. 16).
In test [7] the target is murine anti-hepcidin MAb 583. Nature of the test: competition ELISA, MAb 583 coated, NT-biotin hepcidin-25 tracer.
The target of test [8] is BAP070-01 human-mouse chimeric MAb 583. Nature of the test: C-ELISA, NT-biotin hepcidin-25 on neutravidin.
Test [9] has the same target. The test can be described thus: C-ELISA, BAP070-01 on Protein G, NT-biotin hepcidin-25 tracer.

B1: murine anti-hepcidin MAb 583 (antibody, V domains shown)
VH: QIQLVQSGPELKKPGETVKISCKASGYTFTNYGMNWVKQAPGKGLKWMGWINTYTGEPTYADDFKGRFAFSLETSASTAYLQINNLKNEDTATYFCTTYATSWYWGQGTTLTVSS
VL: DIVLTQSPASLAVSLGQRATISCRASESVDSYGNSFMHWYQQKPGQPPKLLIYRASNLESGIPARFSGSGSRTDFTLTINPVEADDVATYYCQQSNEDLTFGGGTKLEIK
Take B1: in test [1], the binding result is given as “binds”.

B2: BAP070-01 human-mouse chimeric MAb 583 (antibody, V domains shown)
VH: QIQLVQSGPELKKPGETVKISCKASGYTFTNYGMNWVKQAPGKGLKWMGWINTYTGEPTYADDFKGRFAFSLETSASTAYLQINNLKNEDTATYFCTTYATSWYWGQGTLVTVSS
VL: DIVLTQSPASLAVSLGQRATISCRASESVDSYGNSFMHWYQQKPGQPPKLLIYRASNLESGIPARFSGSGSRTDFTLTINPVEADDVATYYCQQSNEDLTFGQGTKVEIKR
In the case of B2, the binding entry in test [2], in [3], in [4] and in test [5] was “binds” each time.

With HFPICIFCCGCCHRSKCGMCCKT [human hepcidin-22 peptide], the binding entry in test [6] and in test [7] was “binds” each time.

For the molecule DTHFPICIFCCGCCHRSKCGMCCKT [human hepcidin-25 (synthetic)], the binding result in test [8] and in test [9] was “binds” in each case.

These data come from patent US20170283495A1.
